The nature of the series: Reaction with excess thiophenol under neutral conditions. The conditions noted are these: excess of thiophenol in MeOH or DMSO.

Molecules are shown by their SMILES. “Also recorded” adds a separate entry of the source.

Turning to `CCCCCCCCCC(=O)N[C@@H](Cc1ccc(-c2ccccc2)cc1)C(=O)N[C@H]1/C=C/CNC(=O)/C=C/[C@H](C(C)C)NC1=O` [analogue 14], the reaction with thiophenol result is “did not react at all; also recorded: no reaction with PhSH”.

Source of the values: paper PMC5642145, “Impact of the structures of macrocyclic Michael acceptors on covalent proteasome inhibition” (Chemical Science, 2017).
